These are yes or no findings as the source states them, for the method shown. In cells and extracts the contact can be indirect. Some binding calls cover weakened binding; strength is not graded here.
What was measured:
[1] = molecular target: carboxypeptidase E (CPE) from rat brain lysate (rat) (UniProt P15087); test: co-immunoprecipitation and GST pull-down (FIG. 12)
[2] = molecular target: hippocalcin-like 1 from rat brain extract (rat) (UniProt P62749); test: co-immunoprecipitation from rat brain extract; assay for direct binding not described
[3] = molecular target: carboxypeptidase E (CPE) from rat brain lysate (rat) (UniProt P15087); test: co-immunoprecipitation and GST pull-down from rat brain lysate (FIG. 12 legend)
[4] = molecular target: hippocalcin-like 1 from rat brain extract (rat) (UniProt P62749); test: co-immunoprecipitation from rat brain extract, Western blot (FIG. 18 legend)
[5] = molecular target: carboxypeptidase E (CPE) from rat brain lysate (rat) (UniProt P15087); test: co-immunoprecipitation from rat brain lysate with anti-NOS1AP, blot for CPE
[6] = molecular target: carboxypeptidase E (CPE) from rat brain lysate (rat) (UniProt P15087); test: GST pull-down from rat brain lysate, blot for CPE

Chains of the proteins cited; added tags and fusions are not shown. Lines headed by an entry give the natural chain unless they say otherwise; changes in a name come on top. Residues count along the entry.
UniProt P15087, residues 43-476: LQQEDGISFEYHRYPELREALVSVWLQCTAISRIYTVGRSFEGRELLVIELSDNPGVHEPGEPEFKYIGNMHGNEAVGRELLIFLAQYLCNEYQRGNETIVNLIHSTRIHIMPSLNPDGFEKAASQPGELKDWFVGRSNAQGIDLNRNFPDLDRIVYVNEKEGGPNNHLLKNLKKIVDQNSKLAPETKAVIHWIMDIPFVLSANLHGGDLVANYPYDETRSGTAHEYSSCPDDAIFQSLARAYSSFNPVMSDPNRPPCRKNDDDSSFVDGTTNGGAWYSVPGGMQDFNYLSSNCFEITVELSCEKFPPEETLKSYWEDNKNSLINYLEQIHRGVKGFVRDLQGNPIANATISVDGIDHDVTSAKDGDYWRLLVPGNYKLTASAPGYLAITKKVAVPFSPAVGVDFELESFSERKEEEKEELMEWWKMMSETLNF
UniProt O54960: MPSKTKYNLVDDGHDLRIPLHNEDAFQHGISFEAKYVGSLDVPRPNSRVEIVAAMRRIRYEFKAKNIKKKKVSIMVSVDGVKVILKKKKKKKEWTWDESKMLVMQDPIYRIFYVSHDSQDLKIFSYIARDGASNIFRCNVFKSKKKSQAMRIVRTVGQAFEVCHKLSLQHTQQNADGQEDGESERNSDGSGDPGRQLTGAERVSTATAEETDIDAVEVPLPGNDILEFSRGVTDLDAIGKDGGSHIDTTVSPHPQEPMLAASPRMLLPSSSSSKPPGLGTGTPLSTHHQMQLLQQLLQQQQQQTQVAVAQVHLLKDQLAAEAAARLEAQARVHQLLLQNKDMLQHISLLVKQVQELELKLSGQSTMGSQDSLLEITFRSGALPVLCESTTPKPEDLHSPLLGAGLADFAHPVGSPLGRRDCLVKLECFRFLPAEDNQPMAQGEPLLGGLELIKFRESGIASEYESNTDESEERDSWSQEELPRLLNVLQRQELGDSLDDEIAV
UniProt O75052: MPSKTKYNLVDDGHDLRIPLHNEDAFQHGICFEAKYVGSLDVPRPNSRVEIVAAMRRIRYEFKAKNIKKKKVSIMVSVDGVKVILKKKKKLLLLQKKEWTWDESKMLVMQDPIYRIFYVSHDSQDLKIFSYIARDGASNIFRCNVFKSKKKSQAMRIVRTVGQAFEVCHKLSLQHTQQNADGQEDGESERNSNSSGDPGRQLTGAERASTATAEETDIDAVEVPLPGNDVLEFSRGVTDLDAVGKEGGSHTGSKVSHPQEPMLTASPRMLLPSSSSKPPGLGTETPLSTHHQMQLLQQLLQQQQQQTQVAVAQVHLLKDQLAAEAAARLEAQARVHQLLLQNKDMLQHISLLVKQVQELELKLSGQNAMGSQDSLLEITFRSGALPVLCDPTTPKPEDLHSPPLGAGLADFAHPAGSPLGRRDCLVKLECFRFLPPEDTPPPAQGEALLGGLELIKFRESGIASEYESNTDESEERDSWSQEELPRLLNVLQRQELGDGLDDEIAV

binding [1] | binding [2] | binding [3] | binding [4] | binding [5] | binding [6] | Substance
binds | binds | binds | binds | binds | – | NOS1AP from rat brain lysate (endogenous) (from UniProt O54960 1-503)
– | – | – | – | – | binds | fusion protein containing GST and NOS1AP-186-312 (from UniProt O75052 186-312)

Reference: patent US20090215877A1
